# Experimental data published in paper PMC12867014, “Angiopoietin-like 3 monomers are abundant in human plasma but are unable to inhibit endothelial lipase” (JCI Insight, 2025).
# Results are given in words; binding and its absence hold for the method and conditions named. Tags and fused reporters may be left off the sequences shown.
# B1: human ANGPTL3 L124A (His-tagged) (protein, UniProt Q9Y5C1 17-460)
# chain: SRIDQDNSSFDSLSPEPKSRFAMLDDVKILANGLLQLGHGLKDFVHKTKGQINDIFQKLNIFDQSFYDLSLQTSEIKEEEKELRRTTYKLQVKNEEVKNMSLELNSKAESLLEEKILLQQKVKYLEEQLTNLIQNQPETPEHPEVTSLKTFVEKQDNSIKDLLQTVEDQYKQLNQQHSQIKEIENQLRRTSIQEPTEISLSSKPRAPRTTPFLQLNEIRNVKHDGIPAECTTIYNRGEHTSGMYAIRPSNSQVFHVYCDVISGSPWTLIQHRIDGSQNFNETWENYKYGFGRLDGEFWLGLEKIYSIVKQSNYVLRIELEDWKDNKHYIEYSFYLGNHETNYTLHLVAITGNVPNAIPENKDLVFSTWDHKAKGHFNCPEGYSGGWWWHDECGENNLNGKYNKPRAKSKPERRRGLSWKSQNGRLYSIKSTKMLIHPTDSESFE
# Target: human ANGPTL3 L124A (His-tagged) (human) (UniProt Q9Y5C1)
# Test: SEC; Superdex 200 of pooled human serum, alone or spiked with conditioned media of recombinant wild-type or L124A human ANGPTL3 (L124A also run without serum); total ANGPTL3, trimeric ANGPTL3 and ANGPTL3/8 complexes in the fractions measured by dedicated immunoassays
binder,measurement,value
B1,binding,no binding
